Three sequences from article PMC9508819, “Rbp95 binds to 25S rRNA helix H95 and cooperates with the Npa1 complex during early pre-60S particle maturation” can be followed below.

Weaker means in comparison with the reference protein, sequence or condition of that experiment. Where a protein sequence is shown, tags need not be part of it.

Series [1] has as its target T1, Rbp95 full length (Saccharomyces cerevisiae) (UniProt P25617).
T1 sequence (looked up): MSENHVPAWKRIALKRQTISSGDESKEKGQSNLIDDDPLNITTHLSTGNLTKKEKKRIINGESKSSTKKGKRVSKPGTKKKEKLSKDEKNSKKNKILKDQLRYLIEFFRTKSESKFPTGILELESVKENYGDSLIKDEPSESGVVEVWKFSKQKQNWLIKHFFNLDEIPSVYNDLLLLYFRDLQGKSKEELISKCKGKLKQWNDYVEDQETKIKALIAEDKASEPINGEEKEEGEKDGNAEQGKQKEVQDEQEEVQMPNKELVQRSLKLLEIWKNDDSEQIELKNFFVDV
Description: EMSA. The conditions noted are these: 5 nM RNA, at least ~4-fold excess needed for shift; EMSA: 25 mM Tris-HCl pH 7.5, 75 mM NaCl, 2.5 mM MgCl2, 3.5% glycerol, 0.025% Tween 20, 0.5 mM DTT, 5 nM Cy5-RNA, 30 min at RT; 4-20% TBE gel; recombinant protein; residues 1-290; protein details: N-terminal His6; label: 5'-Cy5. In general terms: Mobility shift assays separate free from complexed probe on a gel.

In series [2] the target is T2, Rbp95 84-223 (Saccharomyces cerevisiae) (UniProt P25617).
T2 sequence (looked up): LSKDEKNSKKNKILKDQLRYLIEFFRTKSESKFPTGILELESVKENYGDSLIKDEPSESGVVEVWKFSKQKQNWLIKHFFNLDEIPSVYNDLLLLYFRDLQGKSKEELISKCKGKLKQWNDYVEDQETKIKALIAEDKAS
Description: EMSA. The conditions noted are these: 100- or 500-fold excess, reduced versus 84-end; EMSA: 25 mM Tris-HCl pH 7.5, 75 mM NaCl, 2.5 mM MgCl2, 3.5% glycerol, 0.025% Tween 20, 0.5 mM DTT, 5 nM Cy5-RNA, 30 min at RT; 4-20% TBE gel; recombinant protein; residues 84-223; protein details: N-terminal His6; label: 5'-Cy5.

In series [3] the target is T3, Rbp95 84-end (Saccharomyces cerevisiae) (UniProt P25617).
T3 sequence (looked up): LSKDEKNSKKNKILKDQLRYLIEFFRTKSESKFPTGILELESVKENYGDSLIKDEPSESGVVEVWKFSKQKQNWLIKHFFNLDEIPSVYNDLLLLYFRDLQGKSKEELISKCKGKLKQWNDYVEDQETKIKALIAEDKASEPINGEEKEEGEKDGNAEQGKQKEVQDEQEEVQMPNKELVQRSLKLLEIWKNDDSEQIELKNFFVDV
Description: EMSA. Particulars: 100- or 500-fold excess, much weaker than 1-85; EMSA: 25 mM Tris-HCl pH 7.5, 75 mM NaCl, 2.5 mM MgCl2, 3.5% glycerol, 0.025% Tween 20, 0.5 mM DTT, 5 nM Cy5-RNA, 30 min at RT; 4-20% TBE gel; recombinant protein; residues 84-290; protein details: N-terminal His6; label: 5'-Cy5.

Series [4] addresses T1, Rbp95 full length (Saccharomyces cerevisiae). Description: competition with a labelled probe. Particulars: 20-100-fold excess over Cy5-H95, very ineffective; EMSA: 25 mM Tris-HCl pH 7.5, 75 mM NaCl, 2.5 mM MgCl2, 3.5% glycerol, 0.025% Tween 20, 0.5 mM DTT, 5 nM Cy5-RNA, 30 min at RT; 4-20% TBE gel; recombinant protein; residues 1-290; protein details: N-terminal His6.

With “AAAAAAAAAAAAAAAAAAAAAAAAAAAAAAAAAAAAAAAAAA [poly(A)42]”, the binding result in series [1] was “binds more weakly”.

Consider “AAAGGGAAUUGAACUUAGUACGAGAGGAACAGUUCAUUUCCC [helix H95 (25S rRNA)]”, for which the binding result in series [2] and in series [3] was “binds more weakly” in each case.

“AAAAAAAAAAAAAAAAAAAAAAAAAAAAAAAAAAAAAAAAAA [poly(A) unlabeled competitor]”: the binding result in series [4] was “binds more weakly”.
